Measurements: US20100286152A1, “N-PHENYL HYDRAZIDES AS MODULATORS OF THE GHRELIN RECEPTOR” (Glaxo Group Limited, priority 2007, published 2010)
Some of these results come from one statement about several compounds together.

Sequences of proteins named here, by UniProt entry; tags and fusion partners are left off.
UniProt Q92847, whole entry: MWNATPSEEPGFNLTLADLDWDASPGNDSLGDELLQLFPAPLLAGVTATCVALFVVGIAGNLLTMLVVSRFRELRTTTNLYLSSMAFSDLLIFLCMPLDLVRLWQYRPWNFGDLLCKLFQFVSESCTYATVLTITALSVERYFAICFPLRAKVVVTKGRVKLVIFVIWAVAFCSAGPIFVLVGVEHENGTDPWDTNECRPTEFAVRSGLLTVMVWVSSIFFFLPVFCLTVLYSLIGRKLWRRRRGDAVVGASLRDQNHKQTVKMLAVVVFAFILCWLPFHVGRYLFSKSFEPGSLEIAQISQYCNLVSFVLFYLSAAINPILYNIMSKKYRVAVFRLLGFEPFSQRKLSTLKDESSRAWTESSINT

What was measured:
[1] = biological target: T1, Human GHS-R (ghrelin receptor) (Homo sapiens, UniProt Q92847); assay: GHSR Antagonist BACMAM FLIPR Assay; format: cell-based; details: U2OS cells transiently expressing human GHS-R; inhibition of EC80 concentration of hGhrelin; FLIPR fluorescence
T1 construct: The full-length gene was transferred into pCDN for expression analysis; expressed in transfected cells; host or cells: U2OS cells transduced with human GHSR BacMam virus

[2] = biological target: T1, Human GHS-R (ghrelin receptor); assay: GHSR Agonist BACMAM FLIPR Assay (Method X or Y); format: cell-based; details: U2OS cells, maximum asymptote relative to that of the hGhrelin concentration response curve
Experimental: (§1) 24 h prior to assay U2OS cells at confluence 100% were harvested and spun down. The supernatant was removed and the cells resuspended in media (DMEM+10% FBS+1% L-Glutamine). A cell count was performed using the Cedex instrumentation, and the concentration of cells was adjusted using media to give 200K cells per mL (10K cells/50 μL).
(§2) Human GHSR BACMAM virus was added to the cell suspension at an appropriate % volume (calculated for individual batches of BACMAM virus as viral titres vary). The transduced cell suspension was dispensed into FLIPR 384-well clear bottom plates, 50 μL per well. Cell plates were incubated at 37° C. overnight.
Master compound plates were prepared in 100% DMSO. 3 mM was the top concentration (giving 10 μM final concentration) and they were serially diluted 1 in 4. 1 μL from the master plate was transferred to a daughter plate, to which was added 50 μL of compound dilution (Tyrodes {Elga water+145 mM NaCl+5 mM KCl+20 mM HEPES+10 mM glucose+1 mM MgCl2+1.5 mM CaCl2}. For the agonist assay, the compound buffer also contained 0.1% BSA. This plate was used for the assay. Ghrelin was always prepared in buffer containing 0.1% BSA.
Master compound plates were prepared in 100% DMSO. 3 mM was the top concentration (giving 10 μM final concentration) and they were serially diluted 1 in 4. 1 μL from the master plate was transferred to a daughter plate, to which was added 50 μL of compound dilution (HBSS {Elga water+137 mM NaCl+5 mM KCl+0.41 mMa KH2PO4(anhyd)+20 mM HEPES+5 mM glucose+0.81 mM MgSO4(anhyd)+1.3 mM CaCl2+4.16 mM NaHCO3}. For the agonist assay, the compound buffer also contained 0.1% BSA. This plate was used for the assay. Ghrelin was always prepared in buffer containing 0.1% BSA.
Media was aspirated from cell plates using a cell washer (leaving 10 μL of media). Cells were immediately loaded with loading buffer (Tyrodes buffer-(Elga water+145 mM NaCl+5 mM KCl+20 mM HEPES+10 mM glucose+1 mM MgCl2)+1.5 mM CaCl2+0.714 mg/mL Probenecid (predissolved in 1 M NaOH)+0.25 mM brilliant black+2 μM Fluo 4 dye, and incubated at 37.5° C., 5% CO2 for 90 min. The plates were placed in a FLuorimetric Imaging Plate Reader (FLIPR, Molecular Devices) where 10 μL of compound, prepared according to method A above, was added to the cells and fluorescence measurements were taken. Maximum changes in fluorescence were plotted as a percentage of the maximum response elicited by 300 nM hGhrelin and curves fitted using a 4-parameter logistic equation to generate pEC50 values. Intrinsic activity of the compounds was calculated by using the maximum asymptote of it's concentration response curve relative to the maximum asymptote of the hGhrelin concentration response curve.
Media was aspirated from cell plates using a cell washer (leaving 10 μL of media). Cells were immediately loaded with loading buffer (HBSS (Elga water+137 mM NaCl+5 mM KCl+0.41 mM KH2PO4(anhyd)+20 mM HEPES+5 mM glucose+0.81 mM MgSO4(anhyd))+1.3 mM CaCl2+4.16 mM NaHCO3+0.714 mg/mL Probenecid (predissolved in 1 M NaOH)+0.25 mM brilliant black+2 μM Fluo 4 dye, and incubated at 37.5° C., 5% CO2 for 90 min. The plates were placed in a FLuorimetric Imaging Plate Reader (FLIPR, Molecular Devices) where 10 μL of compound, prepared according to method B above, was added to the cells and fluorescence measurements were taken. Maximum changes in fluorescence were plotted as a percentage of the maximum response elicited by 300 nM hGhrelin and curves fitted using a 4-parameter logistic equation to generate pEC50 values. Intrinsic activity of the compounds was calculated by using the maximum asymptote of it's concentration response curve relative to the maximum asymptote of the hGhrelin concentration response curve.

[3] = biological target: T1, Human GHS-R (ghrelin receptor); assay: GHSR Agonist BACMAM FLIPR Assay (Method Z); format: cell-based; details: U2OS cells, maximum asymptote relative to maximum response of hGhrelin at 100 nM
Experimental: as §1, §2
Master compound plates were prepared in 100% DMSO. 0.6 mM was the top concentration (giving 3 μM final concentration) and they were serially diluted 1 in 4. 1 μL from the master plate was transferred to a daughter plate, to which was added 50 μL of compound dilution (NaCl (145 mM) KCl (5 mM) CaCl2 (2 mM) MgCl2 (1 mM) HEPES (20 mM) D-(+)-Glucose (1 g/l), pluronic acid (0.05%), pH 7.3). This plate was used for the assay. Ghrelin was always prepared in compound dilution buffer containing 0.1% BSA.
Media was washed from cell plates, using a cell washer (leaving 20 μL of washing buffer (NaCl (145 mM)+KCl (5 mM)+CaCl2 (2 mM)+MgCl2 (1 mM)+HEPES (20 mM)+D-(+)-Glucose (1 g/l)+Probenecid (2.5 mM), pH 7.3). Cells were immediately loaded with loading buffer (washing buffer+pluronic acid (0.02%)+Fluo 4 dye (2 μM), and incubated at 37° C., for 60 min. After a second washing step (same as for the pre-loading, but leaving 30 μL of washing buffer), the plates were placed in a FLuorimetric Imaging Plate Reader (FLIPR, Molecular Devices) where 10 μL of compound, prepared according to method C above, was added to the cells and fluorescence measurements were taken. Maximum changes in fluorescence were plotted as a percentage of the maximum response elicited by 100 nM hGhrelin and curves fitted using a 4-parameter logistic equation to generate pEC50 values. Percentage activation of the compounds was calculated by using the maximum asymptote of it's concentration response curve relative to the maximum response of the hGhrelin at 100 nM concentration.

[4] = biological target: T2, human GHSR (Human GHRS BacMam membranes) (Homo sapiens, UniProt Q92847); assay: hGHSR Antagonist GTPγS SPA Assay; format: biochemical; details: [35S]GTPγS binding, EC80 human ghrelin
T2 construct: The full-length gene was transferred into pCDN for expression analysis; expressed in transfected cells; host or cells: Membranes of BacMam-transduced cells

Row | SMILES | pIC50 [1] | intrinsic activity (IA) [2] | percentage activation [3] | pIC50 [4]
1 | CN1CCN(C(C(=O)NNc2cc(Cl)cc(Cl)c2)c2ccc(F)c3ccccc23)CC1 (racemic) [Compound 34, (±)-N′-(3,5-dichlorophenyl)-2-(4-fluoro-1-naphthalenyl)-2-(4-methyl-1-piperazinyl)ethanohydrazide] | greater than 5.5 | less than 0.4 | – | –
2 | CN1CCN(C(C(=O)NNc2cc(Cl)cc(Cl)c2)c2cccc3ccccc23)CC1 (racemic) [Compound 48, (±)-N′-(3,5-dichlorophenyl)-2-(4-methylpiperazin-1-yl)-2-(1-naphthyl)aceto-hydrazide diformate] | greater than 5.5 | less than 0.4 | – | –
3 | O=C(NNc1cc(C(F)(F)F)cc(C(F)(F)F)c1)C(c1ccccc1Cl)N1CCN2CCC[C@H]2C1 (single isomer, unassigned; diastereoisomer 1) [Compound 82] | greater than 5.5 | – | less than 40% | –
4 | O=C(NNc1cc(C(F)(F)F)cc(C(F)(F)F)c1)C(c1ccccc1Cl)N1CCN2CCC[C@@H]2C1 (single isomer, unassigned; diastereoisomer 1) [Compound 84] | greater than 5.5 | – | less than 40% | –
5 | O=C(NNc1cc(Cl)cc(Cl)c1)C(c1cccc2ccccc12)N1CCN2CCC[C@H]2C1 (single isomer, unassigned; diastereoisomer 1) [Compound 86] | greater than 5.5 | – | less than 40% | –
6 | Cc1ccc(C(C(=O)NNc2cc(C(F)(F)F)cc(C(F)(F)F)c2)N2CCN3CCC[C@@H]3C2)c(C)n1 (single isomer, unassigned; diastereoisomer 2) [Compound 81] | – | – | less than 40% | –
7 | Cc1ccc(C(C(=O)NNc2cc(C(F)(F)F)cc(C(F)(F)F)c2)N2CCN3CCC[C@@H]3C2)cn1 (single isomer, unassigned; diastereoisomer 2) [Compound 93] | greater than 5.5 | – | less than 40% | –
8 | Cc1ncccc1C(C(=O)NNc1cc(C(F)(F)F)cc(C(F)(F)F)c1)N1CCN2CCC[C@@H]2C1 (single isomer, unassigned; diastereoisomer 2) [Compound 95] | greater than 5.5 | – | less than 40% | –
9 | O=C(NNc1cc(C(F)(F)F)cc(C(F)(F)F)c1)C(c1ccc2c(c1)OCCO2)N1CCN2CCC[C@@H]2C1 (single isomer, unassigned; diastereoisomer 2) [Compound 97] | greater than 5.5 | – | less than 40% | –
10 | CN1CCN(C(C(=O)NNc2cc(Cl)cc(Cl)c2)c2ccc3c(c2)CCO3)CC1 (single isomer, unassigned; enantiomer 2) [Compound 19, N′-(3,5-dichlorophenyl)-2-(2,3-dihydro-1-benzofuran-5-yl)-2-(4-methylpiperazin-1-yl)acetohydrazide-enantiomer 2] | – | less than 0.4 | – | –
11 | COc1ccc(C(C(=O)NNc2cc(C(F)(F)F)cc(C(F)(F)F)c2)N2CCN3CCC[C@@H]3C2)c(C)c1 (stereo partly drawn) [Compound 108, N′-[3,5-bis(trifluoromethyl)phenyl]-2-[(8aR)-hexahydropyrrolo[1,2-a]-pyrazin-2(1H)-yl]-2-[2-methyl-4-(methyloxy)phenyl]acetohydrazide] | – | – | – | greater than 5.5
12 | O=C(NNc1cc(C(F)(F)F)cc(C(F)(F)F)c1)C(c1ccc(C(F)(F)F)nc1)N1CCN2CCC[C@@H]2C1 (stereo partly drawn) [Compound 111, N′-[3,5-bis(trifluoromethyl)phenyl]-2-[(8aR)-hexahydropyrrolo[1,2-a]pyrazin-2(1H)-yl]-2-[6-(trifluoromethyl)-3-pyridinyl]acetohydrazide] | – | – | – | greater than 5.5
13 | O=C(NNc1cc(C(F)(F)F)cc(C(F)(F)F)c1)C(c1ccccc1OC(F)(F)F)N1CCN2CCC[C@@H]2C1 (stereo partly drawn) [Compound 112, N′-[3,5-bis(trifluoromethyl)phenyl]-2-[(8aR)-hexahydropyrrolo[1,2-a]-pyrazin-2(1H)-yl]-2-{2-[(trifluoromethyl)oxy]phenyl}acetohydrazide] | – | – | – | greater than 5.5
14 | O=C(NNc1cc(C(F)(F)F)cc(C(F)(F)F)c1)C(c1cc[nH]n1)N1CCN2CCC[C@@H]2C1 (stereo partly drawn) [Compound 118, N′-[3,5-bis(trifluoromethyl)phenyl]-2-[(8aR)-hexahydropyrrolo[1,2-a]-pyrazin-2(1H)-yl]-2-(1H-pyrazol-3-yl)acetohydrazide] | – | – | – | greater than 5.5
15 | O=C(NNc1cc(C(F)(F)F)cc(C(F)(F)F)c1)C(c1ccccc1F)N1CCN2CCC[C@@H]2C1 (stereo partly drawn) [Compound 120, N′-[3,5-bis(trifluoromethyl)phenyl]-2-(2-fluorophenyl)-2-[(8aR)-hexahydropyrrolo[1,2-a]pyrazin-2(1H)-yl]acetohydrazide] | – | – | – | greater than 5.5
16 | O=C(NNc1cc(C(F)(F)F)cc(C(F)(F)F)c1)C(c1cncnc1)N1CCN2CCC[C@@H]2C1 (stereo partly drawn) [Compound 122, N′-[3,5-bis(trifluoromethyl)phenyl]-2-[(8aR)-hexahydropyrrolo[1,2-a]pyrazin-2(1H)-yl]-2-(5-pyrimidinyl)acetohydrazide] | – | – | – | greater than 5.5
17 | Cn1cncc1C(C(=O)NNc1cc(C(F)(F)F)cc(C(F)(F)F)c1)N1CCN2CCC[C@@H]2C1 (stereo partly drawn) [Compound 124, N′-[3,5-bis(trifluoromethyl)phenyl]-2-[(8aR)-hexahydropyrrolo[1,2-a]pyrazin-2(1H)-yl]-2-(1-methyl-1H-imidazol-5-yl)acetohydrazide] | – | – | – | greater than 5.5
